According to article PMC7071076, “Antibacterial Activity and Pharmacokinetic Profile of a Promising Antibacterial Agent: 22-(2-Amino-phenylsulfanyl)-22-Deoxypleuromutilin” (Molecules, 2020):
Where “and” joins values, the source holds several entries; their conditions need not be identical. Identical values can stand only once. The source gives many values for each of these; only a part stands here.

Test: Pharmacokinetic study in mice
Assay type: in vivo
Conditions: mice 1-8 in order
Experimental: Pharmacokinetic parameters of amphenmulin were measured according to previous reports with some modifications. Each group consisted of eight female SPF-ICR mice. Amphenmulin (1 mg/mL) was administered intravenously, intraperitoneally, and orally at a dose of 10 mg/kg, respectively. Formulation of amphenmulin was a filtered solution in 5% DMSO, 5% Tween-80, and 90% normal saline. Serial samples (each 0.2 mL) were collected from the ocular venous plexus and placed in a plastic centrifuge tube. The blood samples were placed at room temperature for 20 min and transferred to a 4 °C refrigerator for 12 h to promote blood coagulation. Then samples were centrifuged at 2000 r/min for 10 min to get serum. Serum samples were frozen at −20°C. 100 µL of samples was accurately absorbed and mixed with 100 µL of acetonitrile in a 1.5 mL centrifuge tube. The sample was mixed vigorously and centrifuged at 12,000 rpm for 10 min. The supernatant was transferred, filtered through a 0.22 μm cellulose membrane filter and used for LC-MS/MS analysis. Equipment and analysis conditions were shown in supplemental data. The pharmacokinetic parameters of amphenmulin were determined from the mean plasma concentration with noncompartmental analysis in WinNonlin 5.2 software (Pharsight, Mountain View, CA, USA). Data were shown as mean ± standard deviation (SD).

C=C[C@]1(C)C[C@@H](OC(=O)CSc2ccccc2N)[C@]2(C)[C@H](C)CC[C@]3(CCC(=O)[C@H]32)[C@@H](C)[C@@H]1O [Amphenmulin, 22-(2-amino-phenylsulfanyl)-22-deoxypleuromutilin]
plasma concentration, individual mice (intraperitoneal 10 mg/kg, 0.75 h): 0.71 µg/mL and 1.01 µg/mL and 0.92 µg/mL and 1.32 µg/mL and 0.62 µg/mL and 0.51 µg/mL | plasma concentration, individual mice (intraperitoneal 10 mg/kg, 1 h): 0.29 µg/mL and 0.57 µg/mL and 0.44 µg/mL and 0.69 µg/mL and 0.58 µg/mL and 0.91 µg/mL and 0.83 µg/mL and 0.31 µg/mL | plasma concentration, individual mice (intraperitoneal 10 mg/kg, 2 h): 0.25 µg/mL and 0.29 µg/mL and 0.12 µg/mL and 0.60 µg/mL and 0.42 µg/mL and 0.51 µg/mL and 0.32 µg/mL and 0.17 µg/mL | plasma concentration, individual mice (intraperitoneal 10 mg/kg, 4 h): 0.08 µg/mL and 0.05 µg/mL and 0.06 µg/mL and 0.31 µg/mL and 0.12 µg/mL and 0.42 µg/mL and 0.15 µg/mL and 0.25 µg/mL | plasma concentration, individual mice (intraperitoneal 10 mg/kg, 6 h): 0.05 µg/mL and 0.11 µg/mL (2×) and 0.09 µg/mL and 0.04 µg/mL and 0.31 µg/mL and 0.08 µg/mL and 0.21 µg/mL | plasma concentration, individual mice (intraperitoneal 10 mg/kg, 8 h): 0.04 µg/mL and 0.07 µg/mL and 0.06 µg/mL (2×) and 0.12 µg/mL and 0.02 µg/mL and 0.16 µg/mL and 0.05 µg/mL | plasma concentration, individual mice (intraperitoneal 10 mg/kg, 12 h): 0.02 µg/mL (2×) and 0.03 µg/mL and 0.01 µg/mL (3×) and 0.04 µg/mL and 0.05 µg/mL | plasma concentration, individual mice (oral 10 mg/kg, 0.25 h, 10 mg/kg): 0.06 µg/mL (2×) and 0.09 µg/mL and 0.12 µg/mL and 0.11 µg/mL and 0.20 µg/mL and 0.07 µg/mL and 0.04 µg/mL | plasma concentration, individual mice (oral 10 mg/kg, 0.5 h, 10 mg/kg): 0.34 µg/mL and 0.28 µg/mL and 0.48 µg/mL and 0.38 µg/mL and 0.32 µg/mL and 0.11 µg/mL and 0.29 µg/mL and 0.31 µg/mL | plasma concentration, individual mice (oral 10 mg/kg, 1 h, 10 mg/kg): 0.51 µg/mL and 0.45 µg/mL and 0.37 µg/mL and 0.81 µg/mL and 0.57 µg/mL and 0.24 µg/mL and 0.38 µg/mL and 0.61 µg/mL | plasma concentration, individual mice (oral 10 mg/kg, 2 h, 10 mg/kg): 0.26 µg/mL and 0.41 µg/mL and 0.11 µg/mL and 0.56 µg/mL and 0.69 µg/mL and 0.12 µg/mL and 0.25 µg/mL and 0.45 µg/mL | plasma concentration, individual mice (oral 10 mg/kg, 3 h, 10 mg/kg): 0.21 µg/mL and 0.11 µg/mL and 0.52 µg/mL and 0.41 µg/mL and 0.23 µg/mL and 0.08 µg/mL and 0.09 µg/mL and 0.18 µg/mL | plasma concentration, individual mice (oral 10 mg/kg, 4 h, 10 mg/kg): 0.15 µg/mL (2×) and 0.13 µg/mL and 0.07 µg/mL and 0.31 µg/mL and 0.05 µg/mL and 0.06 µg/mL and 0.12 µg/mL | plasma concentration, individual mice (oral 10 mg/kg, 6 h, 10 mg/kg): 0.08 µg/mL and 0.05 µg/mL and 0.07 µg/mL (4×) and 0.15 µg/mL and 0.06 µg/mL | plasma concentration, individual mice (oral 10 mg/kg, 8 h, 10 mg/kg): 0.05 µg/mL (2×) and 0.04 µg/mL (2×) and 0.02 µg/mL and 0.12 µg/mL and 0.03 µg/mL and 0.06 µg/mL | plasma concentration, individual mice (oral 10 mg/kg, 12 h, 10 mg/kg): 0.01 µg/mL (4×) and 0.02 µg/mL (2×) and 0.04 µg/mL and 0.03 µg/mL
